Data as given in PMC4583475, “Receptor Polymorphism and Genomic Structure Interact to Shape Bitter Taste Perception” (PLoS Genetics, 2015).

Tested on: bitter taste perception of 48 Caucasian subjects
Assay: Human psychophysical bitter taste tests (4-AFC recognition thresholds, gLMS intensity ratings)
Format: in vivo
Settings: 48 human subjects

| SMILES | bitter taste recognition threshold, mode of distribution |
| --- | --- |
| CC1=C[C@@H]2[C@H]3[C@H](C(C)=C4[C@H]5OC(=O)[C@@H](C)[C@@H]5CC[C@](C)(O)[C@@H]43)[C@@]13[C@@H]2[C@@](C)(O)CC[C@H]1[C@H](C)C(=O)O[C@@H]13 | 2.6x10^-7 M and 5.9x10^-7 M |
| C=C1CC(O)C2C(=C)C(=O)OC2C2C(C)C(=O)CC12 (centres unmarked) | 9.9x10^-6 M and 2.2x10^-5 M |

Certain results were filed several times, with different values. The list is limited to them. There may be further records. Values that stand side by side read as repeated measurements (runs, samples, wells or individuals).
